# The inconclusive results got no clear call from the source; some entries with a clear call stand among them for comparison. Where the call is inconclusive, the potency comes from a doubtful curve fit. Activity calls are given as the source filed them. Calls follow the shape of the dose curve; as a rule, active = well fitted curve in the direction sought with a large enough effect; inconclusive = small, poorly fitted or top-dose-only effect, or another doubt; inactive = no such curve, though single readings can be large or run the other way.
# Target: Lysine-specific histone demethylase 1A (Homo sapiens) (UniProt O60341)
# Assay: qHTS Assay for Inhibitors of Human Jumonji Domain Containing 2E (JMJD2E): Counterscreen with LSD1
# Settings: Amplex Red/HRP fluorescence; series mostly up to 57.1 µM; activity, negative = inhibition: at the top concentration
# Text: The fine interplay among methylation states of several lysine residues on the tails of histone proteins is a major determinant of the transcriptional state of the associated DNA coding regions and is commonly referred to as the histone code. Histone lysine demethylases catalyze the removal of methyl groups from methylated lysine sidechains on histones H3 and H4, thus antagonizing the reactions catalyzed by histone lysine methyltransferases. […] In search for novel inhibitors of JMJD2E demethylase, a member of the largest set of histone demethylases belonging to the Fe(II) and 2-oxoglutarate oxygenase (2OG) superfamily, we performed a quantitative high-throughput screen (Inglese 2006) by using an assay which utilizes a trimethylated peptide substrate corresponding to a fragment of histone H3 (sequence ARKme3STGGK) with detection of the formaldehyde co-product in real time by a formaldehyde dehydrogenase (FDH) coupled reaction. FDH catalyzes oxidation of formaldehyde to formic acid with the concomitant reduction of the non-fluorescent beta-nicotinamide adenine dinucleotide hydrate (NAD+) cofactor to the fluorescent NADH co-product. Compounds that were validated hits were screened against the histone LSD1 histone demethylase. […] NIH Chemical Genomics Center [NCGC] NIH Molecular Libraries Probe Centers Network [MLPCN] MLPCN Grant: MH084681 Assay Submitter (PI): Udo Oppermann, Structural Genomics Consortium, University of Oxford
# The assay was performed in a buffer containing 10 mM HEPES, Na pH 7.5, 5 mM MgCl2, 50 mM KCl, 0.01% Nonidet P-40, and 0.1% BSA. […] The plate was then centrifuged at 1,000 rpm for 15 seconds, and the fluorescence intensity was recorded on a ViewLux High-throughput CCD imager (Perkin-Elmer) using standard TAMRA optics (525 nm excitation and 598 nm emission). The plate was then incubated for 30 min at room temperature, and a second read on the ViewLux was performed. The fluorescence intensity difference over the 30 min was used to calculate the respective reaction rate for each well.
SMILES,Potency,"activity, negative = inhibition"
O=C(O)c1ccc(O)c2ncc(N3CCOCC3)cc12,"inconclusive: 19.2 µM [inhibitor, partial curve]",–
O=C(O)c1ccc(O)c2ncc(N3CC4CNCC4C3)cc12 (stereo not drawn),"inconclusive: 6.81 µM [inhibitor, partial curve]",–
CN1CCN(c2cnc3c(O)ccc(C(=O)O)c3c2)CC1,–,inactive: -16.4%

# Reference: PubChem BioAssay AID687009 (National Center for Advancing Translational Sciences (NCATS), 2013)
